According to the supplement of paper PMC12819154, “High-throughput peptide-centric local stability assay extends protein–ligand identification to membrane proteins, tissues and bacteria” (Nature Structural & Molecular Biology, 2025):
This is one part of the list. Most entries show no effect beyond the scatter of the controls.

Protein sequences, listed by entry. Tags and fused reporters are not part of them. Lines headed by an entry give the natural chain unless they say otherwise; changes in a name come on top.
UniProt Q8VI94: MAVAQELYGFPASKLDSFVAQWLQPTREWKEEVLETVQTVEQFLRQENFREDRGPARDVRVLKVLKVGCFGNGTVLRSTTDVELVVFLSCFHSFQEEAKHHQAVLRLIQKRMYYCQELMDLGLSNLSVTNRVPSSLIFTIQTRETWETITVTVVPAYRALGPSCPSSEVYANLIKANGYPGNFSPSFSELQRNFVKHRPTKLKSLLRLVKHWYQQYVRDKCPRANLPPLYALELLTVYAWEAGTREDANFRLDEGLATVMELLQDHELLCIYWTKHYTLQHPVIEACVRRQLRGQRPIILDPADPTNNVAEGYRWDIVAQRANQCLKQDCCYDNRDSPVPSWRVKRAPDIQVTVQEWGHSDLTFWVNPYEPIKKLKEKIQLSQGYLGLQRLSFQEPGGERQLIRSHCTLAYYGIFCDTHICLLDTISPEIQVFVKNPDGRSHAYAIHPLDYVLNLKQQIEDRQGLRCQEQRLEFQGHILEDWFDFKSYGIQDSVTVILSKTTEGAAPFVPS
UniProt Q91WV0: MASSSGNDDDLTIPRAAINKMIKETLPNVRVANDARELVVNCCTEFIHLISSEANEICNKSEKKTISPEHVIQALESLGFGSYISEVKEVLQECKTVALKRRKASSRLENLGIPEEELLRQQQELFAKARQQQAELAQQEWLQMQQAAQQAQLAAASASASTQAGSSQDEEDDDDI
UniProt Q91X77, whole entry: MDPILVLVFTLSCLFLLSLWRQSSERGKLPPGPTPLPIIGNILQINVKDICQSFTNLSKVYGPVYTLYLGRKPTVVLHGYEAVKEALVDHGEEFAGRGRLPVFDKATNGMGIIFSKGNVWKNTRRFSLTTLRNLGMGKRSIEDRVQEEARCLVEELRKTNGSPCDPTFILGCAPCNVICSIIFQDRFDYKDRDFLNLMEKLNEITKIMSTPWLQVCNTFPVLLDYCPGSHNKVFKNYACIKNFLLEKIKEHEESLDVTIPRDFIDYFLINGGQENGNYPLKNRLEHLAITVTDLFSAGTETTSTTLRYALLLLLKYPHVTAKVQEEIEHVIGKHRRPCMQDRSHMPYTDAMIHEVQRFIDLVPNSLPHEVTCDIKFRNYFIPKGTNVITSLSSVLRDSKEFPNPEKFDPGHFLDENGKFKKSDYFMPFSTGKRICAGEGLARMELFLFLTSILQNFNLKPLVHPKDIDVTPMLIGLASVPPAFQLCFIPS
UniProt Q91Y74: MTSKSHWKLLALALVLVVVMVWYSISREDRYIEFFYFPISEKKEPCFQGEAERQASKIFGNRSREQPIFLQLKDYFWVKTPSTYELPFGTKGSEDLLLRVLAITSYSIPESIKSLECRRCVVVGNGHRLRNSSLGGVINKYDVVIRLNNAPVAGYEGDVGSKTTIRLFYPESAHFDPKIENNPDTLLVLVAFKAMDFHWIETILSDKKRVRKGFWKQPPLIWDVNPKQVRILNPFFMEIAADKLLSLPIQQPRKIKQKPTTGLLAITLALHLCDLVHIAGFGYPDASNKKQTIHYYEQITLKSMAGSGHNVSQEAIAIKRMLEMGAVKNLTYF

These targets were tested with CN[C@@H]1C[C@H]2O[C@@](C)([C@@H]1OC)n1c3ccccc3c3c4c(c5c6ccccc6n2c5c31)C(=O)NC4 [staurosporine] (assay: log2 fold change of tryptic peptide abundance, ligand vs vehicle (limited proteolysis) (log2 ratio); higher = more trypsin-susceptible (destabilized)). Conditions: ligand concentration: 20 uM; sample: mouse liver crude lysate; replicate design: treated separately.

| Target | log2 fold change |
| --- | --- |
| UniProt Q8VI94 (peptide sequence: LSFQEPGGER, peptide start residue: 391) | -0.122 |
| UniProt Q91WV0 (peptide sequence: EVLQECK, peptide start residue: 89) | -0.141 |
| UniProt Q91X77 (peptide sequence: RFSLTTLR, peptide start residue: 125) | 0.205 |
| UniProt Q91Y74 (peptide sequence: EQPIFLQLK, peptide start residue: 65) | -0.137 |
